Measurements: article PMC9893541
No constants are given. Whether binding was seen depends on the method and setting. Some binding calls cover weakened binding; strength is not graded here. For some assays here: Where a sequence is shown, tags or fusion partners need not be part of it.

By UniProt entry, the sequences of proteins in these tests, tags left out. Residues count along the entry.
UniProt P37023, residues 22-118: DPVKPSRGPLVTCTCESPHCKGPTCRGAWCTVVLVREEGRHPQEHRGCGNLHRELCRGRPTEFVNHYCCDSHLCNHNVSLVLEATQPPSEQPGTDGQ

Assays:
FC-(Alk2)2 = target: T1, FC-(Alk2)2 (UniProt Q04771); experiment: SPR; BIAcore T-200; chimeric Fc-type 1 receptor coupled to a Series S Protein A chip; ligands 6.25-0.049 nM flowed at 50 uL/min, 300 s association, 1000 s dissociation; 20 mM HEPES pH 7.4, 350 mM NaCl, 0.005 % P-20, 0.5 mg/mL BSA, 3.4 mM EDTA; kinetic 1:1 fit (also a bivalent fit); apparent KD = kd/ka; average of N=2; both purified
T1 sequence: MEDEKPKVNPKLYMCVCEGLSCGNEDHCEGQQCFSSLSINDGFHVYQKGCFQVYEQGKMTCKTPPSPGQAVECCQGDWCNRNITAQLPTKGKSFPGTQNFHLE

FC-(Alk1)2 = FC-(Alk1)2 (UniProt P37023); experiment: as above

B1: BMP4 homodimer (ligand, UniProt P12644 293-408)
chain: MSPKHHSQRARKKNKNCRRHSLYVDFSDVGWNDWIVAPPGYQAFYCHGDCPFPLADHLNSTNHAIVQTLVNSVNSSIPKACCVPTELSAISMLYLDEYDKVVLKNYQEMVVEGCGCR
**Q.** What does the source list for B1?
**A.** binding (FC-(Alk2)2): binds weakly; binding (FC-(Alk1)2): binds weakly
